The results in this text go back to patent publication US7521527B2 (Societe de Conseils de Recherches et d'Applications …, priority 2003, dated 2009).

The first series can be described thus: general procedure: Boc solid-phase peptide synthesis; MBHA resin; HBTU/DIEA. The note with it: whole synthesis, scale 0.20 mmol.
For the substance “(Aib^8,^35, Arg^26,^34, Phe^31 )hGLP-1(7-36)NH2”, the isolated mass result is listed as “Approximately 18 mg”.

Another series can be described thus: general procedure: Boc solid-phase peptide synthesis; 4-methylbenzhydrylamine (MBHA) resin, 0.91 mmol/g; HBTU/DIEA. To be noted: whole synthesis, analytical HPLC, scale of the general procedure 0.20 mmol.
Take “(Aib^8,^35, Arg^26,^34, Phe^31 )hGLP-1(7-36)NH2”: the “final HPLC purity” value amounted to 99%.

For “(Aib^835, Arg^26,34, 2Nal^31)hGLP-1(7-36)NH2”, the “final HPLC purity” value stood at 99%.

Regarding “(Aib^8,35, Phe^31, Arg^34)hGLP-1(7-36)NH2”, the “final HPLC purity” value is on record as 99%.

In the case of “(Aib^8,35, Arg^2, Phe^3 )hGLP-1 (7-36)NH2”, the “final HPLC purity” value came out at 99%.

Consider (Aib^8,35, Arg^26)hGLP-1(7-36)NH2, for which the “final HPLC purity” value is reported as 99%.

(Aib^8,35, Arg^26,34)hGLP-1(7-36)NH2: the “final HPLC purity” value is reported as 99%.

“(Aib^8, Arg^26,34, β-Ala^35)hGLP-1(7-36)NH2”: the “final HPLC purity” value is 97%.

As for (Aib^8,35, Arg^34)hGLP-1(7-36)NH2, the “final HPLC purity” value was found to be 99%.
